The experiment deals with T1, FLAG-DGAT2 (diacylglycerol acyltransferase-2) (murine (said of the DGAT2 in BioId/DGAT2)) (UniProt Q9DCV3).
T1 sequence: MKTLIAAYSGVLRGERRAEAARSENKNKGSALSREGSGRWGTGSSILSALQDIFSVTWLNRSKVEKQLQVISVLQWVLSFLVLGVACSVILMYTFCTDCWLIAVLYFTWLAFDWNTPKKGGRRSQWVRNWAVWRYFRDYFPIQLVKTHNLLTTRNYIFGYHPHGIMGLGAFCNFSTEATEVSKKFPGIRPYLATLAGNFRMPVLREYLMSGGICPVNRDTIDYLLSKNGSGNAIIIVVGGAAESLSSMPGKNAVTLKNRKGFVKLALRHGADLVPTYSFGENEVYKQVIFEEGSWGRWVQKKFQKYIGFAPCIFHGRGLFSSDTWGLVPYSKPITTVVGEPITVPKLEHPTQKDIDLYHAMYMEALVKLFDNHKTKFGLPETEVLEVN
In words: co-IP; anti-FLAG agarose immunoprecipitate of HEK-293T cells expressing FL-DGAT2, solubilised with 0.5% CHAPS in PBS, 4 C, eluted with FLAG peptide; immunoblot with anti-calnexin and anti-PDI; control: cells expressing Myc-DGAT2. (In western blotting, separated proteins are transferred to a membrane and probed.)

No constants are given. Whether binding was seen depends on the method and setting. Binding seen in cells or lysates may run through a third protein. Sequences can lack the tags named with a protein.

In the case of “protein disulfide isomerase (human (endogenous in HEK-293T))”, the binding entry is “no binding”.

(Values after publication PMC6322727.)
